Reference: the supplement of paper PMC12823440, “Inhibitors supercharge kinase turnover through native proteolytic circuits” (Nature, 2025)
Where a name gives a salt, the structure may show the parent alone. Some of the results follow. The calls rarely recur for the same compound in another form.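 In K562 cells expressing nanoluciferase-fused kinases, luminescence was recorded at 4 h intervals between 2 and 18 h, normalized as percent of control with DMSO at 100% and a positive control at 0%. A significant (2 sigma) signal drop marks a time point as decreased. The authors' rule for a hit is not shown and takes in more than the number of time points.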

The chains behind the UniProt entries cited, without tags or fusion partners. Where a name states a change or a piece, a line headed by the entry shows the natural chain unless it says otherwise.
UniProt P48729: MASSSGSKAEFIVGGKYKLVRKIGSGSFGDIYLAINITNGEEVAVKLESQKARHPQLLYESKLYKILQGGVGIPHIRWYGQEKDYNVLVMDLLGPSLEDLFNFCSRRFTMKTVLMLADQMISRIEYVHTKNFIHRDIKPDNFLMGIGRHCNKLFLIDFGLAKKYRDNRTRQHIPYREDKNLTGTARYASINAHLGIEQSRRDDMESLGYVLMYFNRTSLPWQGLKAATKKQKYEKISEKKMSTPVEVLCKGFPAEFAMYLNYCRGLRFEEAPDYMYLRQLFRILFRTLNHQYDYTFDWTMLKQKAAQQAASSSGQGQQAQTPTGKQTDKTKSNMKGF
UniProt P48730: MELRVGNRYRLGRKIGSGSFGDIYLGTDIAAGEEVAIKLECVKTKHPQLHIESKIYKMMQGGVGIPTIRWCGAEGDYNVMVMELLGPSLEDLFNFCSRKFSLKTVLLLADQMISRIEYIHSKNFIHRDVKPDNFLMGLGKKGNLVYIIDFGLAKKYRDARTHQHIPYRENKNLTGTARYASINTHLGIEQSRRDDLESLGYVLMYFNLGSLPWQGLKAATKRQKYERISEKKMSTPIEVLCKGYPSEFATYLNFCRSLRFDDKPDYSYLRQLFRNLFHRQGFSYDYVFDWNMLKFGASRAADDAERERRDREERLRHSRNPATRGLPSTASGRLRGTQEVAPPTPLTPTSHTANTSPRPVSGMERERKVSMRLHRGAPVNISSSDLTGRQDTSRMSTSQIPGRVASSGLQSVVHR
UniProt Q08345: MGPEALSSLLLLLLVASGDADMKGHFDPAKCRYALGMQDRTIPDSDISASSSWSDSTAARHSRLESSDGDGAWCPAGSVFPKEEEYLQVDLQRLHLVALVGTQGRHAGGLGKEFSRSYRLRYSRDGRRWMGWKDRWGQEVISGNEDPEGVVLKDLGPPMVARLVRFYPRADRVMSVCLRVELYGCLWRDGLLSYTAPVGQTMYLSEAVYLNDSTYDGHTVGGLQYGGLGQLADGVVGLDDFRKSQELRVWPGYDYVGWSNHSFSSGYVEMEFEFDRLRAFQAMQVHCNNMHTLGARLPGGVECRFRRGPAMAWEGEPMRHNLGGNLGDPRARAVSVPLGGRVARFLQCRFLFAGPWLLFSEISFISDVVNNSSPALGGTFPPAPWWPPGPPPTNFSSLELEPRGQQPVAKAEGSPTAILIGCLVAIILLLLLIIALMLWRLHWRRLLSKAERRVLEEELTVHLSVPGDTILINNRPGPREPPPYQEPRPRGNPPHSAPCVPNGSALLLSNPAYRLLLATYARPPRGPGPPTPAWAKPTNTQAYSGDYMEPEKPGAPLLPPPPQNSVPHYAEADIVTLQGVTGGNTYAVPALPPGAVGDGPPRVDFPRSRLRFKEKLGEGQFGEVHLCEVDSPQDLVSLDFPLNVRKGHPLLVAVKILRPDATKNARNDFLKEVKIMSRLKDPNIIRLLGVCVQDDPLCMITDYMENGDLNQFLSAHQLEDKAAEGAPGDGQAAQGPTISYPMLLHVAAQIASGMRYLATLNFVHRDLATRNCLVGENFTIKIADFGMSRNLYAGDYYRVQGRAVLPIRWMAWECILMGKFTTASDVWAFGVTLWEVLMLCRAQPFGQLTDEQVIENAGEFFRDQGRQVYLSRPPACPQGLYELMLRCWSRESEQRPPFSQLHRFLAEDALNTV
UniProt Q9Y463, whole entry, looked up: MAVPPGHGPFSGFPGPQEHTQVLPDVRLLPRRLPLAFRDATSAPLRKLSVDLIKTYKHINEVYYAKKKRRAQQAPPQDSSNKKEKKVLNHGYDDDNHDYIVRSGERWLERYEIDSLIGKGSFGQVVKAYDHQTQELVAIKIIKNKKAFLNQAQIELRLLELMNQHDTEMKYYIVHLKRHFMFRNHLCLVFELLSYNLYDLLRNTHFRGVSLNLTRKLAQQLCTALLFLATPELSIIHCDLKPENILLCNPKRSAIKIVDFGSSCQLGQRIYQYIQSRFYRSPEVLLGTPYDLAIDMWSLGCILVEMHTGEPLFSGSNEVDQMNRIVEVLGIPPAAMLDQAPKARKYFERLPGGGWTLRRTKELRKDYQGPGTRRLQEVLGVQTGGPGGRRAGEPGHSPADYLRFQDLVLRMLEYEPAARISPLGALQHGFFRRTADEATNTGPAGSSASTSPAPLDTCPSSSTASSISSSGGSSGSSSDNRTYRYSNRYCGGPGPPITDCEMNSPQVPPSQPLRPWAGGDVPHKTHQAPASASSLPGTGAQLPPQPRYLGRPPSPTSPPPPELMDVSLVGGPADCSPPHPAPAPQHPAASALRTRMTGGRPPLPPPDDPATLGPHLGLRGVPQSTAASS
UniProt Q92630: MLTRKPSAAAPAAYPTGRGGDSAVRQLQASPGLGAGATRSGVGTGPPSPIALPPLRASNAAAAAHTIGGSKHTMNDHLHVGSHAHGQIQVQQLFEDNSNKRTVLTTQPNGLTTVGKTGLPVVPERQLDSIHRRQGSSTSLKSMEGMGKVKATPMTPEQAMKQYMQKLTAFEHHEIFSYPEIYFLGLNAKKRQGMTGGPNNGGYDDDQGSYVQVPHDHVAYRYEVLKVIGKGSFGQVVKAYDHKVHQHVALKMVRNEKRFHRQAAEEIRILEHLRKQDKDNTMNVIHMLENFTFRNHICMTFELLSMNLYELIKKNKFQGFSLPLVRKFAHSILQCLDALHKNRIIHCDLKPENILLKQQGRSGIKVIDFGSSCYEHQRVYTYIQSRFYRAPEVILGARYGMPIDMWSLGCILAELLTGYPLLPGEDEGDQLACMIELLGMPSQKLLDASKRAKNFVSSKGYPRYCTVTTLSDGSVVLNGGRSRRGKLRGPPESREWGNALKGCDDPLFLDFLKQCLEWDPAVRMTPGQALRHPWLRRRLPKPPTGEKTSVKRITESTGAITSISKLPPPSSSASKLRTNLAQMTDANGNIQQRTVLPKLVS

How the values were obtained:
Assay in all cases: number of time points (of 5) at which kinase-Nluc abundance scored as decreased, DMSO-normalised (count); higher = more persistent destabilization
Settings in all cases: K562; 2-18 h
CSNK1A1 = CSNK1A1 (UniProt P48729)
CSNK1D = CSNK1D (UniProt P48730)
DDR1 = DDR1 (UniProt Q08345)
DYRK1B = DYRK1B (UniProt Q9Y463)
DYRK2 = DYRK2 (UniProt Q92630)
EGFR = EGFR (UniProt P00533)
EGFR_G719S = EGFR_G719S (UniProt P00533)
EGFR_G719S_T790M = EGFR_G719S_T790M (UniProt P00533)
EGFR_L718V = EGFR_L718V (UniProt P00533)
EGFR_L858R = EGFR_L858R (UniProt P00533)

Measured: number of time points

CN1C(=O)N[C@H](Cc2c[nH]c3c(Cl)cccc23)C1=O [Necrostatin 2] (10 µM)
0: all assays above

COc1cc2nccc(Oc3ccc(NC(=O)NC4CC4)c(Cl)c3)c2cc1C(N)=O [Lenvatinib] (10 µM)
3: EGFR_G719S
1: EGFR
0: all other assays above

Cn1nccc1Nc1nccc(-c2ccn([C@H](CO)c3ccc(Cl)c(F)c3)c(=O)c2)n1 [Ravoxertinib] (10 µM)
0: all assays above

C[C@@H]1CC[C@@H](Nc2nc(NC(C)(C)C)ncc2C(N)=O)C[C@H]1O (10 µM)
0: all assays above

O=c1cc(CN2CCOCC2)occ1OCCCCCSc1ccnc2cc(C(F)(F)F)ccc12 (10 µM)
1: DYRK2
0: all other assays above

COc1cc(Nc2ncc(F)c(Nc3ccc4c(n3)NC(=O)C(C)(C)O4)n2)cc(OC)c1OC (10 µM)
0: CSNK1A1 | CSNK1D | DDR1 | DYRK1B | DYRK2

Cc1ccc(C(=O)Nc2ccc(Oc3cc4cnn(C)c4cc3-c3cn[nH]c3)c(F)c2)c(=O)n1-c1ccc(F)cc1 [Merestinib dihydrochloride] (2.5 µM)
0: all assays above

CCS(=O)(=O)c1ncc(Cl)c(C(=O)N(Cc2ccc(Cl)cc2)Cc2ccco2)n1 (2.5 µM)
1: DDR1
3: DYRK1B
0: all other assays above

CCNc1nc(Nc2cc(F)c(C(=O)N3CCOCC3)cc2OC)ncc1C(F)(F)F [GNE-7915 (tosylate)] (10 µM)
0: all assays above

NC(=O)c1ccc(-c2nc(-c3ccc4c(c3)OCCO4)c(-c3ccccn3)[nH]2)cc1 (10 µM)
0: all assays above

C[C@H](c1ccnc(Nc2nc3ccc(-c4cc(N(C)C)ncn4)cc3[nH]2)c1)N1CCN(C(=O)CC(F)(F)F)CC1 (2.5 µM)
0: all assays above

COc1cc2c(cc1OC)CN(S(=O)(=O)c1ccc(OC)c(N3CCN(C(=O)c4ccc(F)cc4C(F)(F)F)CC3)c1)CC2 (10 µM)
0: all assays above

Cc1ccc2nc(NCCN)c3ncc(C)n3c2c1 (2.5 µM)
0: all assays above

CCCS(=O)(=O)Nc1ccc(F)c(C(=O)c2c[nH]c3ncc(-c4ccc(Cl)cc4)cc23)c1F [Vemurafenib] (10 µM)
1: CSNK1D | DDR1
2: CSNK1A1
0: all other assays above

COc1ccccc1-c1cc(Nc2cccc(CS(N)(=O)=O)c2)ncn1 (10 µM)
3: DYRK2 | EGFR_G719S_T790M | EGFR_L858R
1: CSNK1A1
0: all other assays above

Cc1ccc(CNc2ncnc3ccc(-c4ccc(CO)o4)cc23)o1 (10 µM)
0: all assays above

Cc1nc2sccn2c(=O)c1CCN1CCC(=C(c2ccccc2)c2ccc(F)cc2)CC1 (10 µM)
0: all assays above

Nc1ncnc2c1c(-c1cccc(OCc3ccccc3)c1)cn2C1CC(CN2CCC2)C1 (stereo not given) (2.5 µM)
1: DDR1
0: all other assays above

COc1cc2c(N3CCN(C(=O)Nc4ccc(OC(C)C)cc4)CC3)ncnc2cc1OCCCN1CCCCC1 [Tandutinib (hydrochloride)] (10 µM)
0: CSNK1A1 | CSNK1D | DDR1 | DYRK1B | DYRK2

C=CC(=O)Nc1cc(Nc2ncc(Cl)c(-c3c[nH]c4ccccc34)n2)c(OC)cc1N(C)CCN(C)C [Mutant EGFR inhibitor] (2.5 µM)
3: DDR1 | DYRK2
1: DYRK1B
0: all other assays above

c1ccc(-c2[nH]ncc2-c2ccnc3ccccc23)nc1 (10 µM)
0: all assays above

O=C(N/N=C/c1coc2ccccc2c1=O)c1cccnc1 (10 µM)
0: all assays above

FC(F)(F)c1ccc(CNc2ccc(Cc3c[nH]c4ncccc34)cn2)cc1 (10 µM)
0: all assays above

CC(=O)c1c(C)cc2cccc(O)c2c1O [Nepodin] (10 µM)
0: all assays above

CC#CC(=O)Nc1ccc2ncnc(Nc3cccc(Br)c3)c2c1 (10 µM)
0: CSNK1A1 | CSNK1D | DDR1 | DYRK1B | DYRK2

COCCNc1nc2ccc(C#CC3(O)CCCCC3)cc2n1-c1ccnc(N)n1 (10 µM)
0: all assays above

COc1cc2c(N3CCN(C(=O)Nc4ccc(OC(C)C)cc4)CC3)ncnc2cc1OCCCN1CCCCC1 [Tandutinib] (10 µM)
0: CSNK1A1 | CSNK1D | DDR1 | DYRK1B | DYRK2

CCc1cc2c(cc1N1CCC(N3CCOCC3)CC1)C(C)(C)c1[nH]c3cc(C#N)ccc3c1C2=O [Alectinib (Hydrochloride)] (2 µM)
0: all assays above

C=CC(=O)Nc1cccc(Nc2nc(Nc3ccc(N4CCN(C(C)=O)CC4)cc3OC)ncc2C(F)(F)F)c1 [Rociletinib] (10 µM)
4: DYRK2
1: DDR1 | DYRK1B | EGFR_L718V
0: all other assays above

O=C1Nc2ccc(C(=O)c3ccco3)cc2C1=Cc1cc(Cl)c(O)c(Cl)c1 (2.5 µM)
0: all assays above

COc1cc(Nc2ncc(F)c(Nc3ccc4c(n3)NC(=O)C(C)(C)O4)n2)cc(OC)c1OC [R406 (free base)] (10 µM)
0: CSNK1A1 | CSNK1D | DDR1 | DYRK1B | DYRK2

CCN1CCC(n2cc(CNc3cc(Cl)c4ncc(C#N)c(Nc5ccc(F)c(Cl)c5)c4c3)nn2)CC1 [Cot inhibitor-2] (2.5 µM)
0: all assays above

S=C(SSC(=S)N1CCOCC1)N1CCOCC1 (10 µM)
2: DDR1
1: EGFR_G719S_T790M
0: all other assays above

9 successive entries out of the list so far, for reference:
O=C(N/N=C/c1coc2ccccc2c1=O)c1cccnc1 (10 µM)
0: all assays above

FC(F)(F)c1ccc(CNc2ccc(Cc3c[nH]c4ncccc34)cn2)cc1 (10 µM)
0: all assays above

CC(=O)c1c(C)cc2cccc(O)c2c1O [Nepodin] (10 µM)
0: all assays above

CC#CC(=O)Nc1ccc2ncnc(Nc3cccc(Br)c3)c2c1 (10 µM)
0: CSNK1A1 | CSNK1D | DDR1 | DYRK1B | DYRK2

COCCNc1nc2ccc(C#CC3(O)CCCCC3)cc2n1-c1ccnc(N)n1 (10 µM)
0: all assays above

COc1cc2c(N3CCN(C(=O)Nc4ccc(OC(C)C)cc4)CC3)ncnc2cc1OCCCN1CCCCC1 [Tandutinib] (10 µM)
0: CSNK1A1 | CSNK1D | DDR1 | DYRK1B | DYRK2

CCc1cc2c(cc1N1CCC(N3CCOCC3)CC1)C(C)(C)c1[nH]c3cc(C#N)ccc3c1C2=O [Alectinib (Hydrochloride)] (2 µM)
0: all assays above

C=CC(=O)Nc1cccc(Nc2nc(Nc3ccc(N4CCN(C(C)=O)CC4)cc3OC)ncc2C(F)(F)F)c1 [Rociletinib] (10 µM)
4: DYRK2
1: DDR1 | DYRK1B | EGFR_L718V
0: all other assays above

O=C1Nc2ccc(C(=O)c3ccco3)cc2C1=Cc1cc(Cl)c(O)c(Cl)c1 (2.5 µM)
0: all assays above

(further entries)

CCS(=O)(=O)Nc1ccc2[nH]c(O)c(C(=Nc3ccc(CN4CCCCC4)cc3)c3ccccc3)c2c1 [Hesperadin] (2.5 µM)
4: DDR1 | DYRK2
1: EGFR_G719S_T790M | EGFR_L858R
0: all other assays above

O=c1[nH]c(=O)n([C@@H]2O[C@H](CO)[C@@H](O)[C@@H]2O)cc1/C=C/Br [Sorivudine] (10 µM)
1: EGFR_G719S
0: all other assays above

C=CC(=O)Nc1cccc(Nc2nc(Nc3ccc(NC4CN(CCF)C4)cc3OC)ncc2C(F)(F)F)c1 (2.5 µM)
0: all assays above

CN(C)CCSSCCNC(=O)C1CCN(C(=O)CSc2ccc(Cl)cc2)CC1 (10 µM)
0: all assays above

CC[C@@H](Oc1nc(Oc2cc(C)cc(-c3cccc(CN)c3)c2)c(F)cc1F)C(=O)O (10 µM)
0: all assays above

Oc1ccc(Nc2nc(-c3ccc(Cl)cc3)cs2)cc1 (10 µM)
0: all assays above
